The effect of the compound repeats well; differences between the knockouts mostly do not.
Test system: SKBR3
Experiment: relative cell number vs DMSO control (72 h) (% of DMSO); higher = less growth inhibition (more cells)
Protocol: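 QMAP-Seq: a pool of 5 breast cancer cell lines (ZR-75-1, SKBR3, HCC-38, MDA-MB-231, BT-20), each carrying 12 doxycycline-inducible Cas9 sgRNA perturbations (11 knockouts plus non-targeting sgNT), was treated with compounds for 72 h at four 10-fold doses (10 nM-10 uM or 1 nM-1 uM range). Barcodes were amplified and sequenced, and cell number was interpolated from 293T spike-in standard curves. The result is expressed as % of the median of DMSO wells. Two biological replicates.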

C[C@@]1(C(=O)Nc2ccc(F)nc2)CCCN1c1nc(Nc2cc(C3CC3)n[nH]2)c2cccn2n1
Conditions	relative cell number
sgRNA knockout: sgATF3, 10 nM	81.7
sgRNA knockout: sgATF3, 100 nM	91.7
sgRNA knockout: sgATF3, 1000 nM	60.3
sgRNA knockout: sgATF3, 10000 nM	73.2
sgRNA knockout: sgATF4, 10 nM	98.5
sgRNA knockout: sgATF4, 100 nM	82.8
sgRNA knockout: sgATF4, 1000 nM	72.7
sgRNA knockout: sgATF4, 10000 nM	59.4
sgRNA knockout: sgATF6, 10 nM	74.8
sgRNA knockout: sgATF6, 100 nM	94.6
sgRNA knockout: sgATF6, 1000 nM	54.8
sgRNA knockout: sgATF6, 10000 nM	76
sgRNA knockout: sgATG7, 10 nM	95.4
sgRNA knockout: sgATG7, 100 nM	94.3
sgRNA knockout: sgATG7, 1000 nM	84.3
sgRNA knockout: sgATG7, 10000 nM	72.1
sgRNA knockout: sgERN1, 10 nM	76.4
sgRNA knockout: sgERN1, 100 nM	107
sgRNA knockout: sgERN1, 1000 nM	73.3
sgRNA knockout: sgERN1, 10000 nM	63.4
sgRNA knockout: sgHSF1, 10 nM	88.6
sgRNA knockout: sgHSF1, 100 nM	77.5
sgRNA knockout: sgHSF1, 1000 nM	67.9
sgRNA knockout: sgHSF1, 10000 nM	67.2
sgRNA knockout: sgHSF2, 10 nM	98.2
sgRNA knockout: sgHSF2, 100 nM	87.7
sgRNA knockout: sgHSF2, 1000 nM	79.5
sgRNA knockout: sgHSF2, 10000 nM	64.1
sgRNA knockout: sgKEAP1, 10 nM	99.6
sgRNA knockout: sgKEAP1, 100 nM	96.1
sgRNA knockout: sgKEAP1, 1000 nM	67.3
sgRNA knockout: sgKEAP1, 10000 nM	59.2
sgRNA knockout: sgNFE2L2, 10 nM	83.3
sgRNA knockout: sgNFE2L2, 100 nM	78.8
sgRNA knockout: sgNFE2L2, 1000 nM	79.2
sgRNA knockout: sgNFE2L2, 10000 nM	68.3
sgRNA knockout: sgSLC35F2, 10 nM	103
sgRNA knockout: sgSLC35F2, 100 nM	82.6
sgRNA knockout: sgSLC35F2, 1000 nM	82.4
sgRNA knockout: sgSLC35F2, 10000 nM	72.1
sgRNA knockout: sgXBP1, 10 nM	114
sgRNA knockout: sgXBP1, 100 nM	78.6
sgRNA knockout: sgXBP1, 1000 nM	64.2
sgRNA knockout: sgXBP1, 10000 nM	80

CN1C(=O)C(Cc2c[nH]c3ccccc23)NC1=S (configuration not stated) [Necrostatin1]
Conditions	relative cell number
sgRNA knockout: sgATF3, 10 nM	90.8
sgRNA knockout: sgATF3, 100 nM	85.2
sgRNA knockout: sgATF3, 1000 nM	79.3
sgRNA knockout: sgATF3, 10000 nM	75.8
sgRNA knockout: sgATF4, 10 nM	91.45
sgRNA knockout: sgATF4, 100 nM	75.2
sgRNA knockout: sgATF4, 1000 nM	82.4
sgRNA knockout: sgATF4, 10000 nM	77.7
sgRNA knockout: sgATF6, 10 nM	96.8
sgRNA knockout: sgATF6, 100 nM	86.2
sgRNA knockout: sgATF6, 1000 nM	68.3
sgRNA knockout: sgATF6, 10000 nM	85.5
sgRNA knockout: sgATG7, 10 nM	92.6
sgRNA knockout: sgATG7, 100 nM	73.1
sgRNA knockout: sgATG7, 1000 nM	66
sgRNA knockout: sgATG7, 10000 nM	76.9
sgRNA knockout: sgERN1, 10 nM	88.4
sgRNA knockout: sgERN1, 100 nM	68.9
sgRNA knockout: sgERN1, 1000 nM	56.7
sgRNA knockout: sgERN1, 10000 nM	78.1
sgRNA knockout: sgHSF1, 10 nM	94
sgRNA knockout: sgHSF1, 100 nM	98.2
sgRNA knockout: sgHSF1, 1000 nM	79.7
sgRNA knockout: sgHSF1, 10000 nM	90.1
sgRNA knockout: sgHSF2, 10 nM	90.8
sgRNA knockout: sgHSF2, 100 nM	81.3
sgRNA knockout: sgHSF2, 1000 nM	80.4
sgRNA knockout: sgHSF2, 10000 nM	77.5
sgRNA knockout: sgKEAP1, 10 nM	85
sgRNA knockout: sgKEAP1, 100 nM	75.4
sgRNA knockout: sgKEAP1, 1000 nM	76
sgRNA knockout: sgKEAP1, 10000 nM	83.4
sgRNA knockout: sgNFE2L2, 10 nM	103
sgRNA knockout: sgNFE2L2, 100 nM	77.5
sgRNA knockout: sgNFE2L2, 1000 nM	71.2
sgRNA knockout: sgNFE2L2, 10000 nM	74.3
sgRNA knockout: sgSLC35F2, 10 nM	78.1
sgRNA knockout: sgSLC35F2, 100 nM	68.8
sgRNA knockout: sgSLC35F2, 1000 nM	64.5
sgRNA knockout: sgSLC35F2, 10000 nM	58.8
sgRNA knockout: sgXBP1, 10 nM	85.1
sgRNA knockout: sgXBP1, 100 nM	94.5
sgRNA knockout: sgXBP1, 1000 nM	75.3
sgRNA knockout: sgXBP1, 10000 nM	69.4

FC(F)c1nc2ccccc2n1-c1nc(N2CCOCC2)nc(N2CCOCC2)n1 [ZSTK474]
Conditions	relative cell number
sgRNA knockout: sgATF3, 10 nM	80.9
sgRNA knockout: sgATF3, 100 nM	95.8
sgRNA knockout: sgATF3, 1000 nM	59.8
sgRNA knockout: sgATF3, 10000 nM	35.6
sgRNA knockout: sgATF4, 10 nM	90.5
sgRNA knockout: sgATF4, 100 nM	108
sgRNA knockout: sgATF4, 1000 nM	52.8
sgRNA knockout: sgATF4, 10000 nM	33.9
sgRNA knockout: sgATF6, 10 nM	88.1
sgRNA knockout: sgATF6, 100 nM	93.9
sgRNA knockout: sgATF6, 1000 nM	50.2
sgRNA knockout: sgATF6, 10000 nM	31.1
sgRNA knockout: sgATG7, 10 nM	98.7
sgRNA knockout: sgATG7, 100 nM	93.7
sgRNA knockout: sgATG7, 1000 nM	52.4
sgRNA knockout: sgATG7, 10000 nM	45.55
sgRNA knockout: sgERN1, 10 nM	87.2
sgRNA knockout: sgERN1, 100 nM	106
sgRNA knockout: sgERN1, 1000 nM	51.3
sgRNA knockout: sgERN1, 10000 nM	29.3
sgRNA knockout: sgHSF1, 10 nM	74.6
sgRNA knockout: sgHSF1, 100 nM	79.6
sgRNA knockout: sgHSF1, 1000 nM	45.8
sgRNA knockout: sgHSF1, 10000 nM	39.4
sgRNA knockout: sgHSF2, 10 nM	81.4
sgRNA knockout: sgHSF2, 100 nM	74.5
sgRNA knockout: sgHSF2, 1000 nM	56.3
sgRNA knockout: sgHSF2, 10000 nM	30.3
sgRNA knockout: sgKEAP1, 10 nM	84.8
sgRNA knockout: sgKEAP1, 100 nM	92.8
sgRNA knockout: sgKEAP1, 1000 nM	54.4
sgRNA knockout: sgKEAP1, 10000 nM	39.2
sgRNA knockout: sgNFE2L2, 10 nM	90.9
sgRNA knockout: sgNFE2L2, 100 nM	92.2
sgRNA knockout: sgNFE2L2, 1000 nM	60.4
sgRNA knockout: sgNFE2L2, 10000 nM	41.7
sgRNA knockout: sgSLC35F2, 10 nM	93.7
sgRNA knockout: sgSLC35F2, 100 nM	88.5
sgRNA knockout: sgSLC35F2, 1000 nM	44
sgRNA knockout: sgSLC35F2, 10000 nM	29.8
sgRNA knockout: sgXBP1, 10 nM	96.9
sgRNA knockout: sgXBP1, 100 nM	106
sgRNA knockout: sgXBP1, 1000 nM	53.7
sgRNA knockout: sgXBP1, 10000 nM	43.9
